Reference: patent US20100242135A1
No constants are given. Whether binding was seen depends on the method and setting. For some of these results: Binding seen in cells or lysates may run through a third protein. Some results given as binding are weak or reduced against the parent protein; the word gives no strength. For some of these results: Sequences can lack the tags named with a protein.

Protein sequences, listed by entry. Tags and fused reporters are not part of them. Lines headed by an entry give the natural chain unless they say otherwise; changes in a name come on top.
UniProt P04386: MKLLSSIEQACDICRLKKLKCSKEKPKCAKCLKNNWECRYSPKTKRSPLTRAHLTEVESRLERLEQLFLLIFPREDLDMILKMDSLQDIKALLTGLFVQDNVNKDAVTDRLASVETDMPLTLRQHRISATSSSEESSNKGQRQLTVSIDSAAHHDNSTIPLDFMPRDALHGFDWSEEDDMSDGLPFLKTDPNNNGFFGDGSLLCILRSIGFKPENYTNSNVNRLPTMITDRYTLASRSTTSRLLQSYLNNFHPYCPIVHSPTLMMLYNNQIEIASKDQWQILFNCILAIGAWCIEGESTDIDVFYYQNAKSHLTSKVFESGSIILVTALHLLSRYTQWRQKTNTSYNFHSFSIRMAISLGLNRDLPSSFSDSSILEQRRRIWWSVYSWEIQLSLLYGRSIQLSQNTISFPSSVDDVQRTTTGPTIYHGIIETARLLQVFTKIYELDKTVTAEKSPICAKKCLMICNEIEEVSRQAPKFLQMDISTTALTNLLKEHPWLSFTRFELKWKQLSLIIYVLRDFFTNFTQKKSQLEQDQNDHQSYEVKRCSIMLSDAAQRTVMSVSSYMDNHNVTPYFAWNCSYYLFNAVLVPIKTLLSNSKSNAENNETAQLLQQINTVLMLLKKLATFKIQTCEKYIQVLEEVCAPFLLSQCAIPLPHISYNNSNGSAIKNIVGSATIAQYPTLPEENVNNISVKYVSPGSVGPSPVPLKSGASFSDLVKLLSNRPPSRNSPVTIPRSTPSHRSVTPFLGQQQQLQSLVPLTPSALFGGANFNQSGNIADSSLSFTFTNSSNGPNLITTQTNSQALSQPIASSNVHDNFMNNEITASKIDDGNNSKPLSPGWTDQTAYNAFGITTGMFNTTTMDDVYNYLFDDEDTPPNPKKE

How the values were obtained:
[1] = molecular target: T1, EIN2-CEND, yeast two-hybrid construct (EIN2:GAL4 DNA-binding domain fusion) (Arabidopsis) (UniProt P04386+Q9S814); experiment: yeast two-hybrid screen and directed yeast two-hybrid
[2] = molecular target: T1, EIN2-CEND, yeast two-hybrid construct (EIN2:GAL4 DNA-binding domain fusion) (Arabidopsis); experiment: yeast two-hybrid, growth on selective plates
[3] = molecular target: T2, EIN2-CEND5, yeast two-hybrid construct (Arabidopsis) (UniProt P04386+Q9S814); experiment: yeast two-hybrid
[4] = molecular target: T1, EIN2-CEND, yeast two-hybrid construct (EIN2:GAL4 DNA-binding domain fusion) (Arabidopsis); experiment: directed yeast two-hybrid
[5] = molecular target: T2, EIN2-CEND5, yeast two-hybrid construct (Arabidopsis); experiment: yeast two-hybrid (the sentence runs on into paragraph 134, where 'ETP2' stands)
[6] = molecular target: T3, GST-EIN2-CEND fusion protein (Arabidopsis) (UniProt Q9S814); experiment: GST pull-down, anti-HA western blot
T3 sequence (looked up): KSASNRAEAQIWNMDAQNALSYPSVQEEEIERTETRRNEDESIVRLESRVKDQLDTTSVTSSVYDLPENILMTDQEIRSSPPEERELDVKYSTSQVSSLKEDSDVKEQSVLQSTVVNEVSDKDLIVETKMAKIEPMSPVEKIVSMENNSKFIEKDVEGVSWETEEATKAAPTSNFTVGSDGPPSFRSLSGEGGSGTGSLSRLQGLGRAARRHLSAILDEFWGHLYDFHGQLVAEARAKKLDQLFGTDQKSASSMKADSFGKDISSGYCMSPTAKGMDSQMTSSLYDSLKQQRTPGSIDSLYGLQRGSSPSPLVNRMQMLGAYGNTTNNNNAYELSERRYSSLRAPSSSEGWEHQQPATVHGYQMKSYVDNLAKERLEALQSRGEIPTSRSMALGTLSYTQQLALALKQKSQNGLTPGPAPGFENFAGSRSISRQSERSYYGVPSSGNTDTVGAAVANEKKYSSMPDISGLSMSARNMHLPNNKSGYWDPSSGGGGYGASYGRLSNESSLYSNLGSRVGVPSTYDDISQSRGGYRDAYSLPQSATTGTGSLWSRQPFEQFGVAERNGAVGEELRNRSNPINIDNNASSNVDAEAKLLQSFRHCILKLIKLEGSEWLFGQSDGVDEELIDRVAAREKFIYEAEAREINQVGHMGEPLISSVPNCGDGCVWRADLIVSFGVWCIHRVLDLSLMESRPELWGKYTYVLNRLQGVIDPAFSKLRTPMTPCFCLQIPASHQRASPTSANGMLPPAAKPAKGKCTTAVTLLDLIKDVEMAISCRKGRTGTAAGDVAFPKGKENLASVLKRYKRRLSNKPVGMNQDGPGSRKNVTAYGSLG

[7] = molecular target: T3, GST-EIN2-CEND fusion protein (Arabidopsis); experiment: GST pull-down
[8] = molecular target: T3, GST-EIN2-CEND fusion protein (Arabidopsis); experiment: GST pull-down of in vitro translated HA-tagged protein, anti-HA western blot

Measured: binding

B1: ETP1 (EIN2 … PROTEIN1), yeast two-hybrid construct (protein)
chain: MTIPDLCNDLVDEILCRVPARNLKRLRSTSKRWNRLFKDDRRFAREHMHKAPKEYLPLMLTSEYRICPVSINLQGDVPSVVLKRELSLPDPDYSHQFDIGRVFHCDGLLVCNHVGKNPRYGSKIVVWNPLTGQTRWIEAGYRWKEYEVRFVLGYCYQQDENNSCSKKIYKILCFYPNGQDTEIYELNYSDRWTRTIPDGDLTPGWTLIYSEQTVSMNGNLYLFASEKSKPHLGVSLLRFDFSTEKSSLCVTLPYQRPRYEILSISAVRGGENLSLLLQLDFESKTEIWVTNKIDDTTTKGAAVSWTKVLAFDLSPDLQLFSEEVNFLLDEDKKVAVCCERWLEPQEHHRYQCRREYKITDKIYILGEDNKVDEVGSGEGEATDSLEGISQVILNYAPSLVQIEQAGGGKTKRGDD
binds: [1] | [2] | [3]

B2: ETP2 (EIN2 … PROTEIN2), yeast two-hybrid construct (protein)
chain: MKTIQEQLPNDLVEEILCRVPATSLRRLRSTCKAWNRLFKGDRILASKHFEKSAKQFRSLSLRNDYRIFPISFNLHGNSPSLELKSELIDPHSKNSAAPFEISRVIHCEGLLLCSSQLDESRVVVWNPLTGETRWIRTGDFRQKGRSFDVGYYYQKDKRSWIKSYKLLCYYRGTKYFEIYDFDSDSWRILDDIIAPRGSIGYSELSVSLKGNTYWFAKGVTEERPRTISLLKFDFYTEKSVPVLLPYQSRRLFQASSLSVVREDKLSVLLQLDQSSKTEIWVTNVIDETTKGAVSWTKVLALDLSPHLQIGNDGSFFLGEDKKVVMFCEKLIDENKVKDMVYIVGEDNVVTEVGFGVDEMDGCRAVILNYVPSLVQIERAGGNRKRGH
binds: [2] | [4] | [3] | [5]

B3: HA-tagged ETP1, in vitro translated (protein, not shown: small tags and cut ends)
chain: B1 chain
binds: [6] | [7] | [8]

B4: HA-tagged ETP2, in vitro translated (protein, not shown: small tags and cut ends)
chain: B2 chain
binds: [6] | [7] | [8]
